The values that follow come from the supplement of paper PMC6411743.

Sequences of proteins named here, by UniProt entry; tags and fusion partners are left off. A change or cut given only in a name is not applied to a line headed by its entry.
UniProt Q9NW64: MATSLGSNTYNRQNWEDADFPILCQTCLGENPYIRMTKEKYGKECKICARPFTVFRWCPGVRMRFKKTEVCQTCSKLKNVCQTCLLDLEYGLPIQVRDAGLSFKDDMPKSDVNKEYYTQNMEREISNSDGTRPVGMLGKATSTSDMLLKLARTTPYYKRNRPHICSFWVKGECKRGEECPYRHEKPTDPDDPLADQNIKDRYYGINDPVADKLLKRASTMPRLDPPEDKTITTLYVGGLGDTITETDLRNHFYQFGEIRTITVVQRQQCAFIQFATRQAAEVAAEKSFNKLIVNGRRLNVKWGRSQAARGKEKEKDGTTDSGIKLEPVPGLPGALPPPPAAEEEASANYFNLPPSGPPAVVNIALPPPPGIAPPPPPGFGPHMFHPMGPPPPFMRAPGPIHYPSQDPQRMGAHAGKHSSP
UniProt Q9UBK8: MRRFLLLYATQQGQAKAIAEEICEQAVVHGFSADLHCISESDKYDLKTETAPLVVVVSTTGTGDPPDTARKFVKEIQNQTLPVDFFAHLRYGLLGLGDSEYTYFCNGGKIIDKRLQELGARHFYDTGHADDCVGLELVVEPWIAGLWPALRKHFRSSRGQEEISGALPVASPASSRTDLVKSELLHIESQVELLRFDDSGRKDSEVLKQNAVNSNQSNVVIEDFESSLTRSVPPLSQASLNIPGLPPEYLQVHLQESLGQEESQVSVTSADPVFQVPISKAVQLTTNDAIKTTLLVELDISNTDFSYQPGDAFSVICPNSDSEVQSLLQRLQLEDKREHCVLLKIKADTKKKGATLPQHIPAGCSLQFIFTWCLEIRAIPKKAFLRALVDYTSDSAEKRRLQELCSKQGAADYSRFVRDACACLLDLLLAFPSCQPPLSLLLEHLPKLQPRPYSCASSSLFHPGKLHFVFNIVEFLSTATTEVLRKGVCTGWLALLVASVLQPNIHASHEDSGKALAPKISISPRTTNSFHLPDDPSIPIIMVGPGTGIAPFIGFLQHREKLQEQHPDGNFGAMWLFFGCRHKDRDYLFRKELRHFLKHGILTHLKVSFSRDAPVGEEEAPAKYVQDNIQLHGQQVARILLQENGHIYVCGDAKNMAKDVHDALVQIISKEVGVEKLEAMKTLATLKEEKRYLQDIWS
UniProt Q9NWR8: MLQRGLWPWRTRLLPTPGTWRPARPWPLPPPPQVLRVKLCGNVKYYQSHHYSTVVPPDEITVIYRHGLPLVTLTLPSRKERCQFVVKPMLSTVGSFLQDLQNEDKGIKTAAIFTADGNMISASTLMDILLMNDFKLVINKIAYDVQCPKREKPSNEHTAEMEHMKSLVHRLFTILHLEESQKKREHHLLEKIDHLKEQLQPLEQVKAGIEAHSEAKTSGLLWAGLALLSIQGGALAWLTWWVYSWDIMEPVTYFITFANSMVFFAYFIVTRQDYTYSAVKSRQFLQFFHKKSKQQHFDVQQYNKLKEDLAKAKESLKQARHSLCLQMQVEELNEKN
UniProt Q9UBI1, whole entry: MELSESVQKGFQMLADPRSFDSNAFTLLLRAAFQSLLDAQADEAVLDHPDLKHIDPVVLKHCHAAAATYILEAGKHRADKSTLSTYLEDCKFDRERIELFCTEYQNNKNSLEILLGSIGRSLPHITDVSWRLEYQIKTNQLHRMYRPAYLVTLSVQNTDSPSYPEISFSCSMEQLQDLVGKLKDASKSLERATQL
UniProt Q9UHR6: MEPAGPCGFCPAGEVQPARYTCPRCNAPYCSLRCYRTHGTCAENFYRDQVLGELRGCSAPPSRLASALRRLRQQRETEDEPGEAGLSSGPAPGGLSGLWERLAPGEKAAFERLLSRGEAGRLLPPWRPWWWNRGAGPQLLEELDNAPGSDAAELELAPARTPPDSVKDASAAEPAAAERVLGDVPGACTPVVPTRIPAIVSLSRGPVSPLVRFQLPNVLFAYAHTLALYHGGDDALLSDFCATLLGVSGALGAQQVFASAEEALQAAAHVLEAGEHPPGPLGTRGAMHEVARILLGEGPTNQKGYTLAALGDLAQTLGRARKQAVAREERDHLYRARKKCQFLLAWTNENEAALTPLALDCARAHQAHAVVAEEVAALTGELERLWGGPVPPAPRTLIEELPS
UniProt Q9UBW7: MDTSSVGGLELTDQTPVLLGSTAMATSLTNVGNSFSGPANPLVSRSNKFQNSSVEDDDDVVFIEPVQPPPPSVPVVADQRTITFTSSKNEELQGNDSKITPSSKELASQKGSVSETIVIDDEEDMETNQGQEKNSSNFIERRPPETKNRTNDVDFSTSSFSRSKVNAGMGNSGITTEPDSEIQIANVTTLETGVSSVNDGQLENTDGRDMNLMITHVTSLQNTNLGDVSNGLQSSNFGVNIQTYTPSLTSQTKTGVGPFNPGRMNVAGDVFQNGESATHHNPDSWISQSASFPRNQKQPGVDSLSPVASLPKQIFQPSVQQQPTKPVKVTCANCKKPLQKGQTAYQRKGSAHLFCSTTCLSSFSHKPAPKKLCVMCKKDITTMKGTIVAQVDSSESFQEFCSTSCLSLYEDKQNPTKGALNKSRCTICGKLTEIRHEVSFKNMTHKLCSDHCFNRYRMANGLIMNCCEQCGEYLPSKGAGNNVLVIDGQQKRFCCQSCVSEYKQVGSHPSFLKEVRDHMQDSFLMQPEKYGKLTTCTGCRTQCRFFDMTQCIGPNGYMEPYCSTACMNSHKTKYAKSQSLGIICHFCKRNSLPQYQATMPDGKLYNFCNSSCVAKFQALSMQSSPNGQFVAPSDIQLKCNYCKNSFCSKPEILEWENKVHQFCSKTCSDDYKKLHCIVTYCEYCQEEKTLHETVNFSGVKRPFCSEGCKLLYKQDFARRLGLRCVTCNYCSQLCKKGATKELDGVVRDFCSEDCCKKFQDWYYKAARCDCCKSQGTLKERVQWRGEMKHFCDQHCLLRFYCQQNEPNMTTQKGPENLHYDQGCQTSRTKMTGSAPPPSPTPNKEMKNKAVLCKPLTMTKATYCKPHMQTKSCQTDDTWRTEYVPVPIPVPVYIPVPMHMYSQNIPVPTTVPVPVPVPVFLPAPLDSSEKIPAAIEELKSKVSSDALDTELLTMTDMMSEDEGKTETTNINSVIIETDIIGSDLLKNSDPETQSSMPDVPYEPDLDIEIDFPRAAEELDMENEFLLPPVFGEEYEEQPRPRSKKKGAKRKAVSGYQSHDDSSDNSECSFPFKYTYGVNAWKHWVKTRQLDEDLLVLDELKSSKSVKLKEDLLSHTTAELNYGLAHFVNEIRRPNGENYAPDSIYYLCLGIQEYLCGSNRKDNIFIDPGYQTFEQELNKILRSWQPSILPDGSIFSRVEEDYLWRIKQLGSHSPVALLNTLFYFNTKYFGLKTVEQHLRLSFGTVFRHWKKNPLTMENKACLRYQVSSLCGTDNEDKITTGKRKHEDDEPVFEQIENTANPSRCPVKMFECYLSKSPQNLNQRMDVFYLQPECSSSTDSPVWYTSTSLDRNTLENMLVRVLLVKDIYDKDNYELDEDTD
UniProt Q9UBT2: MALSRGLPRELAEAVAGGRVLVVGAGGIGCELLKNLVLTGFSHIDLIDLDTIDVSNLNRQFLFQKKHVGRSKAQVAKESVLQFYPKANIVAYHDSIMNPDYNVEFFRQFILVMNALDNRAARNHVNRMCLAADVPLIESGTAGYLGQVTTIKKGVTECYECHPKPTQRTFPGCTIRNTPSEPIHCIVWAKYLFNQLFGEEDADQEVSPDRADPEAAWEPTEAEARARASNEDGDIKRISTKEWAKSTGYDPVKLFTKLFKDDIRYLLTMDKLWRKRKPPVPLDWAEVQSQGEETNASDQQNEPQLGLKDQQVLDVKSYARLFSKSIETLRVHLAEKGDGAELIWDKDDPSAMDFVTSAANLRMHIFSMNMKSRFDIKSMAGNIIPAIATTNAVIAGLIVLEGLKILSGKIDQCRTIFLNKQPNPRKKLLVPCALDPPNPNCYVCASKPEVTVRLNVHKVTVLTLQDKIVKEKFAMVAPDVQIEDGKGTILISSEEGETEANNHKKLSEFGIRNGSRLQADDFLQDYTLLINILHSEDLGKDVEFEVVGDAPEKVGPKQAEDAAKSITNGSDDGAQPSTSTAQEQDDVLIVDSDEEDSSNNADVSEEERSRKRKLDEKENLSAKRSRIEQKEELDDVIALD
UniProt Q9UH92: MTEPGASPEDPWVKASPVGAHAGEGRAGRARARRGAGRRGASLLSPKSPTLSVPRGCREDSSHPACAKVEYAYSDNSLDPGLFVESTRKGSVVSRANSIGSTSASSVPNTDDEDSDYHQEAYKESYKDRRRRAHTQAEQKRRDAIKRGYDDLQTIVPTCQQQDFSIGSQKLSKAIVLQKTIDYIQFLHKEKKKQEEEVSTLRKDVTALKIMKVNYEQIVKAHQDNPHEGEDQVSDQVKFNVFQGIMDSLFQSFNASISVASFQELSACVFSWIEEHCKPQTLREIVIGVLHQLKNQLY
UniProt Q9NY97: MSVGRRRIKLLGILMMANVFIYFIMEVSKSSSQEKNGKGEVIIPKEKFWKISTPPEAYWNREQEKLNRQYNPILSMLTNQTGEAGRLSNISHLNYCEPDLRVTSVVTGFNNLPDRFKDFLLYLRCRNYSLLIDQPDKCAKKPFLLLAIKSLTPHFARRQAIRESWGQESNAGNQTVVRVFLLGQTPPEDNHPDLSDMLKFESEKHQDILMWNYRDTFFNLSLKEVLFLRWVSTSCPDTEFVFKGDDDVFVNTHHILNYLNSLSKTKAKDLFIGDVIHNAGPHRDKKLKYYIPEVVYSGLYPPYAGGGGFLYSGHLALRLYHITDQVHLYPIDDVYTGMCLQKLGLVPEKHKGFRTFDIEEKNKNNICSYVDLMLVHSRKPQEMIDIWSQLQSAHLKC
UniProt Q9UDY8: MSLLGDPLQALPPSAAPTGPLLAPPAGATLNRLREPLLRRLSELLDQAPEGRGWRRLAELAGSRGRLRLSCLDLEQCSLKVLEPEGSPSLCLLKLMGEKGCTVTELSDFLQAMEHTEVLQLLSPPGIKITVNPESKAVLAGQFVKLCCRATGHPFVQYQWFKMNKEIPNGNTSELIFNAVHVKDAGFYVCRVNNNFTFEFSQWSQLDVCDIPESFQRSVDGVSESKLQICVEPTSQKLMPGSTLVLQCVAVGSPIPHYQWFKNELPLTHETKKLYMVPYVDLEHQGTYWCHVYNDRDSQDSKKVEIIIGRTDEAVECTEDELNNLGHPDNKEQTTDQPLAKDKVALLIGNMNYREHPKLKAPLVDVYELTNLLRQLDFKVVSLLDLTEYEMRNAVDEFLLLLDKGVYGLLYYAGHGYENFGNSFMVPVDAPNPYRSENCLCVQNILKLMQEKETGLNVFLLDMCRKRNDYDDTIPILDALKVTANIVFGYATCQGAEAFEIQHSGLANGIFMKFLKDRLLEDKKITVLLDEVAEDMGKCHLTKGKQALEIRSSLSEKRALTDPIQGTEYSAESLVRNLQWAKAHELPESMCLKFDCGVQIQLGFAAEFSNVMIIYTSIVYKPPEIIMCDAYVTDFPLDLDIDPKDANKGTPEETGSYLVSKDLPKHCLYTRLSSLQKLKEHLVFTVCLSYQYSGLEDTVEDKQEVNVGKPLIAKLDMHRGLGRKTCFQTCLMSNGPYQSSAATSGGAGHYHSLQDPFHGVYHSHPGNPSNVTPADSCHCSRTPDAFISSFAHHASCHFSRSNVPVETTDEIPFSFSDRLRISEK
UniProt Q9NZI8, whole entry: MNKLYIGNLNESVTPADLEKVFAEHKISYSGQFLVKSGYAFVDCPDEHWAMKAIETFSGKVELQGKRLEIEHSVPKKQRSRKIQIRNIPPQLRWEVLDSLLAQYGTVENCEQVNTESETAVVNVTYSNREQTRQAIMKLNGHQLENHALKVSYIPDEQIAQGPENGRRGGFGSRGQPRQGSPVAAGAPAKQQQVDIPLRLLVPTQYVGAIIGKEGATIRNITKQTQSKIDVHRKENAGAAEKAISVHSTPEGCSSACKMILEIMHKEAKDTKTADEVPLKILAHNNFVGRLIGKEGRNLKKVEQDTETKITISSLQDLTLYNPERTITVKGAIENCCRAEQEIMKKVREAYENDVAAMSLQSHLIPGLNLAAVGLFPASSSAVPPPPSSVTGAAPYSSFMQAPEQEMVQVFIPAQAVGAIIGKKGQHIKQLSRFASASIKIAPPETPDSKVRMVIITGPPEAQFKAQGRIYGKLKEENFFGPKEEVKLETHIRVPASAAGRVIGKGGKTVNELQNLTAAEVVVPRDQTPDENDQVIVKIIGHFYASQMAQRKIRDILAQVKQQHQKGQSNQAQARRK
UniProt Q9UEE5: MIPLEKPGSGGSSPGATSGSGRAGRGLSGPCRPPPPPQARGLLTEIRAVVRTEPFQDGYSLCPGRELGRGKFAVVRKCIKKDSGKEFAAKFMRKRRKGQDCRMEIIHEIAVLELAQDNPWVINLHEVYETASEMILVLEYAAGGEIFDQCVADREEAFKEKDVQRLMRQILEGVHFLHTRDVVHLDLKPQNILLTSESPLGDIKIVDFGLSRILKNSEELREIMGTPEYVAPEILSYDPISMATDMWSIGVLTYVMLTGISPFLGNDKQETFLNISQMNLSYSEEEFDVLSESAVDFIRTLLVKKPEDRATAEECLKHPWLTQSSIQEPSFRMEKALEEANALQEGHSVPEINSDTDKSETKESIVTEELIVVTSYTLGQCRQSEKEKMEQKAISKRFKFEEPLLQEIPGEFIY

± gives the standard deviation of the averaged measurements. The list shows a part of the results.

Compound in this test: Nc1nc2c(ncn2[C@@H]2O[C@H](COP(=O)(O)OP(=O)(O)OP(=O)(O)O)[C@@H](O)[C@H]2O)c(=O)[nH]1 [guanosine triphosphate]
The experiment in a line: NP40-soluble protein abundance relative to vehicle (solubility fold change) (ratio); higher = more soluble protein in presence of GTP. The gist of the method:
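Jurkat crude lysate prepared with a Dounce homogeniser was treated at eight concentrations spanning 0.1 to 10 mM, 10 min at room temperature then 3 min at 37 °C. Solubilisation with 0.8% NP40 and benzonase and ultracentrifugation preceded TMT labelling of the supernatant for LC-MS/MS. Fold change against the detergent-processed vehicle was determined per replicate from vsn-normalised intensities, across three independent experiments.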

UniProt Q9NVI7-2: the NP40-soluble protein abundance is, setting by setting: (concentration: 0.1mM) 1.07 ± 0.062; (concentration: 0.5mM) 1.16 ± 0.085; (concentration: 1mM) 1.34 ± 0.083; (concentration: 2mM) 1.56 ± 0.18; (concentration: 4mM) 1.79 ± 0.32; (concentration: 6mM) 1.9 ± 0.29. Moreover, the NP40-soluble protein abundance (concentration: 8mM) amounted to 2.04 ± 0.29 and the NP40-soluble protein abundance (concentration: 10mM) turned out to be 2.11 ± 0.29.

For the target UniProt Q9NW64, the NP40-soluble protein abundance was 1.016 ± 0.0065 (concentration: 0.1mM); 0.998 ± 0.027 (concentration: 0.5mM); 0.962 ± 0.06 (concentration: 1mM); 0.942 ± 0.07 (concentration: 2mM); 0.962 ± 0.066 (concentration: 4mM); 0.967 ± 0.064 (concentration: 6mM). The NP40-soluble protein abundance turned out to be 1 ± 0.049 (concentration: 8mM) and 0.991 ± 0.1 (concentration: 10mM).

Take UniProt Q9UBK8 and related entries: the NP40-soluble protein abundance amounted to 0.969 ± 0.064 (concentration: 0.1mM); 1.04 ± 0.1 (concentration: 0.5mM); 0.929 ± 0.024 (concentration: 1mM); 0.974 ± 0.069 (concentration: 2mM); 0.95 ± 0.047 (concentration: 4mM); 0.993 ± 0.085 (concentration: 6mM). The NP40-soluble protein abundance runs as follows: (concentration: 8mM) 0.932 ± 0.042; (concentration: 10mM) 0.976 ± 0.072.

Consider UniProt Q9NWR8, for which the NP40-soluble protein abundance is, setting by setting: (concentration: 0.1mM) 1.06 ± 0.13; (concentration: 0.5mM) 1.05 ± 0.099; (concentration: 1mM) 0.987 ± 0.11; (concentration: 2mM) 1.08 ± 0.12; (concentration: 4mM) 1.05 ± 0.15; (concentration: 6mM) 1.02 ± 0.05. Besides, the NP40-soluble protein abundance by setting is: (concentration: 8mM) 1.02 ± 0.095; (concentration: 10mM) 0.99 ± 0.11.

Regarding UniProt Q9UBI1 and related entries, the NP40-soluble protein abundance worked out at 0.963 ± 0.05 (concentration: 0.1mM); 0.965 ± 0.053 (concentration: 0.5mM); 1.02 ± 0.023 (concentration: 1mM); 0.987 ± 0.064 (concentration: 2mM); 0.978 ± 0.082 (concentration: 4mM); 1.01 ± 0.052 (concentration: 6mM). In addition, the NP40-soluble protein abundance stood at 0.974 ± 0.061 (concentration: 8mM) and 0.981 ± 0.086 (concentration: 10mM).

Turning to ZNHIT2 (UniProt Q9UHR6), the NP40-soluble protein abundance was 1.11 ± 0.12 (concentration: 0.1mM); 0.997 ± 0.012 (concentration: 0.5mM); 0.996 ± 0.029 (concentration: 1mM); 1.11 ± 0.054 (concentration: 2mM); 1.106 ± 0.0074 (concentration: 4mM); 1.1 ± 0.028 (concentration: 6mM). Moreover, the NP40-soluble protein abundance is 1.1 ± 0.074 (concentration: 8mM) and 1.08 ± 0.058 (concentration: 10mM).

As to ZMYM2 (UniProt Q9UBW7), the NP40-soluble protein abundance (concentration: 0.1mM) was 1.07 ± 0.065; the NP40-soluble protein abundance (concentration: 0.5mM) is 1.09 ± 0.066; the NP40-soluble protein abundance (concentration: 1mM) was determined as 1.04 ± 0.053; the NP40-soluble protein abundance (concentration: 2mM) worked out at 1.11 ± 0.11; the NP40-soluble protein abundance (concentration: 4mM) stood at 1.16 ± 0.13; the NP40-soluble protein abundance (concentration: 6mM) was found to be 1.14 ± 0.089. The NP40-soluble protein abundance by setting is: (concentration: 8mM) 1.22 ± 0.19; (concentration: 10mM) 1.16 ± 0.14.

For UniProt Q9UBT2 and related entries, the NP40-soluble protein abundance is, setting by setting: (concentration: 0.1mM) 0.979 ± 0.01; (concentration: 0.5mM) 0.9978 ± 0.0062; (concentration: 1mM) 0.945 ± 0.019; (concentration: 2mM) 0.911 ± 0.025; (concentration: 4mM) 0.911 ± 0.041; (concentration: 6mM) 0.899 ± 0.027. Besides, the NP40-soluble protein abundance is, setting by setting: (concentration: 8mM) 0.902 ± 0.037; (concentration: 10mM) 0.87 ± 0.044.

In the case of UniProt Q9UH92 and related entries, the NP40-soluble protein abundance is, setting by setting: (concentration: 0.1mM) 0.987 ± 0.02; (concentration: 0.5mM) 0.951 ± 0.079; (concentration: 1mM) 0.914 ± 0.062; (concentration: 2mM) 1.07 ± 0.17; (concentration: 4mM) 1.01 ± 0.096; (concentration: 6mM) 0.944 ± 0.14. The NP40-soluble protein abundance runs as follows: (concentration: 8mM) 0.909 ± 0.069; (concentration: 10mM) 1.01 ± 0.062.

Regarding UniProt Q9NY97 and related entries, the NP40-soluble protein abundance is 0.997 ± 0.064 (concentration: 0.1mM); 0.898 ± 0.02 (concentration: 0.5mM); 0.909 ± 0.089 (concentration: 1mM); 0.937 ± 0.012 (concentration: 2mM); 0.93 ± 0.016 (concentration: 4mM); 0.915 ± 0.069 (concentration: 6mM). For the same target, the NP40-soluble protein abundance reads like this: (concentration: 8mM) 0.841 ± 0.065; (concentration: 10mM) 0.924 ± 0.029.

For UniProt Q9UDY8 and related entries, the NP40-soluble protein abundance is, setting by setting: (concentration: 0.1mM) 1.05 ± 0.095; (concentration: 0.5mM) 1.02 ± 0.073; (concentration: 1mM) 0.947 ± 0.13; (concentration: 2mM) 0.987 ± 0.052; (concentration: 4mM) 0.994 ± 0.088; (concentration: 6mM) 0.945 ± 0.073. Further, the NP40-soluble protein abundance was 0.9385 ± 0.0082 (concentration: 8mM) and 0.852 ± 0.066 (concentration: 10mM).

Consider IGF2BP1 (UniProt Q9NZI8), for which the NP40-soluble protein abundance by setting is: (concentration: 0.1mM) 0.962 ± 0.018; (concentration: 0.5mM) 0.989 ± 0.01; (concentration: 1mM) 0.965 ± 0.035; (concentration: 2mM) 0.957 ± 0.057; (concentration: 4mM) 0.958 ± 0.054; (concentration: 6mM) 0.982 ± 0.059. Besides, the NP40-soluble protein abundance reads like this: (concentration: 8mM) 0.978 ± 0.044; (concentration: 10mM) 0.971 ± 0.06.

For the target PAG1 (UniProt Q9NWQ8), the NP40-soluble protein abundance (concentration: 0.1mM) is 0.966 ± 0.077; the NP40-soluble protein abundance (concentration: 0.5mM) stood at 0.963 ± 0.075; the NP40-soluble protein abundance (concentration: 1mM) is 0.979 ± 0.066; the NP40-soluble protein abundance (concentration: 2mM) worked out at 0.988 ± 0.1; the NP40-soluble protein abundance (concentration: 4mM) is 0.934 ± 0.068; the NP40-soluble protein abundance (concentration: 6mM) is 0.977 ± 0.1. Besides, the NP40-soluble protein abundance was determined as 0.969 ± 0.051 (concentration: 8mM) and 1.03 ± 0.043 (concentration: 10mM).

UniProt Q9UEE5: the NP40-soluble protein abundance runs as follows: (concentration: 0.1mM) 1.2 ± 0.22; (concentration: 0.5mM) 1.11 ± 0.054; (concentration: 1mM) 1.107 ± 0.0057; (concentration: 2mM) 1.12 ± 0.11; (concentration: 4mM) 1.035 ± 0.0085; (concentration: 6mM) 0.969 ± 0.059. In addition, the NP40-soluble protein abundance is, setting by setting: (concentration: 8mM) 0.9349 ± 0.0081; (concentration: 10mM) 1.04 ± 0.047.
